{"source": "patent US20110281810A1", "about": "“Composition” (Cognis IP Management GmbH, priority 2010, published 2011)", "test": "Solubilization of a homologous series of cinnamic acid derivatives in water by solubilizers", "details": "Eumulgin ES vs Solutol HS15, Eumulgin RO 35 PH, Polysorbat 80", "note": "The name of at least one read-out is uncertain."}
{"compound": "CCCCOC(=O)C=Cc1ccccc1", "note": "[butyl cinnamate]", "values": [{"measurement": "Solubilizer effectiveness compared with standard market solubilizers", "value": "significantly more effective solubilizer"}]}
